From patent US20240272170A1
Results are given in words; binding and its absence hold for the method and conditions named. Some entries that bind do so weakly or less than the wild type.

T1: L of … (…)
T1 sequence (peptide): LIFAKAYPDDD

T2: L of RLIFAK{acetyl}AYPDDD (LIFAK{acetyl}AYPDDD)
T2 sequence (peptide, K5 acetylated): LIFAKAYPDDD

T3: …{LYS(FITC)}
T3 sequence (peptide, FITC on the C-terminal Lys): AAKLDEESILKQK


Tests used:
[1] = substrate: T4, I of RLIFAK{acetyl}AYPDDD (IFAK{acetyl}AYPDDD); experiment: on-chip dynamic sequencing with PS691, PS610, PS961, PS1165; two example traces
T4 sequence (peptide, K4 acetylated): IFAKAYPDDD

L of … (…) = molecular target: T1, L of … (…); experiment: as above
[2] = molecular target: T2, L of RLIFAK{acetyl}AYPDDD (LIFAK{acetyl}AYPDDD); experiment: as above
…{LYS(FITC)} = molecular target: T3, …{LYS(FITC)}; experiment: high-throughput Octet assay, peptide on the sensor

Binder	binding [1]	binding (L of … (…))	binding [2]	binding (…{LYS(FITC)})
PS961 (designed binder) MPTAASATESAIEDTPAPARPEVDGRTKPKRQPRYHVVLWDDDDHTYQYVVVMLRSLFGHPPSRGYRMAKEMDTQGRVIVLTTTREHAELKRDQIHAFGRDRLLARSKGSMKASIEAEE	binds	binds	binds	–
PS824 (designed binder) MPTAASATESAFEDTPAPARPEVDGRTKPKRQPRYHVVLWDDDDHTYQYVVVMLRSLFGHPPERGYRLAKEMDTQGRVIVLTTTREHAELKRDQIHAFGYDRLLARSKGSMKASIEAEE	–	–	–	binds
